Counter-ions that a name gives are not always drawn. Some of the results follow. Single values are uncertain here, since repeats match poorly.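 The human kidney-derived cells carry a stably integrated construct of eight TEAD-binding elements driving luciferase, read by luminescence in a drug-repurposing library screen. A compound counts as a hit when its signal is more than five robust Z scores above the plate mean.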
Test system: HEK293A TEAD-LUC reporter
Assay: TEAD-luciferase reporter activity (YAP activation), robust Z score vs plate; higher = stronger YAP/TEAD activation
Conditions: 24 h

SMILES	TEAD-luciferase reporter activity (compound concentration: 200 nM)	TEAD-luciferase reporter activity (compound concentration: 2 uM)	TEAD-luciferase reporter activity (compound concentration: 10 uM)
N#C[N-]c1nncs1 [sodium of N-(1,3,4-thiadiazol-2-yl)cyanamide]	inactive: 0.12	inactive: -0.463	inactive: -0.837
Cc1cccc(C(=O)NCN2CCC(c3cccc[n+]3[O-])CC2)c1	inactive: 1.65	inactive: -0.611	inactive: -1.12
CN(C)Cc1ccc(CSCCNC(=O)c2ccc[n+]([O-])c2)o1	inactive: -0.933	inactive: 1.22	inactive: -0.129
C[C@H](NC(=O)C(C)(F)F)[C@H](Oc1ccc2c(cnn2-c2cccc(C(=O)N[C@@H]3CCOC3)c2)c1)c1ccc2c(c1)OCCO2	inactive: 1.67	–	inactive: 0.622
Cc1cccc(OCCNCc2cc(F)cc(C#N)c2)c1	inactive: -0.9	inactive: -0.602	inactive: 0.15
Cc1ccc(C(=O)N2CCC(=CC(=O)N[C@@H]3CCN(Cc4ccc5cc(F)ccc5c4)C3)CC2)nn1	inactive: -0.338	inactive: -1.94	inactive: -0.431
CCC(CC)(CC(=O)Nc1cccc(OCc2ccc3ccc(F)cc3n2)c1)C(=O)O	inactive: 0.196	inactive: -0.000773	inactive: 0.411
Cc1cc(C(=O)NC[C@@H]2CC[C@H]3C[C@@H]2C3(C)C)ccc1Cl	inactive: -0.627	–	inactive: 2.23
COCCNC(=O)c1ccnc(C(=O)NCCOC)c1 [Lufironil]	inactive: 2.07	inactive: -0.0229	inactive: 2
COCC(=O)N1CCCC1C(=O)N1CCC(c2ccccc2)CC1 (configuration not stated)	active: 13	–	inactive: -0.744
CN(C)CC#CCCC(=O)C(O)(c1ccccc1)C1CCC1 (configuration not stated)	inactive: -0.381	inactive: -0.91	inactive: 0.589
CC(C)CCNc1ncccc1C(=O)N1CCN(Cc2ccccc2)CC1	inactive: -0.41	inactive: -1.6	inactive: 0.125
CCCOC(=O)N[C@@H](C(=O)N1CCC[C@H]1C(=O)NC[C@H]1CC[C@H](N)CC1)C(C)(C)SC(C)C	inactive: -0.401	inactive: -0.551	inactive: 1.25
CCN(CC)CCN(Cc1ccc(-c2ccc(C(F)(F)F)cc2)cc1)C(=O)Cn1c(SCc2ccc(F)cc2)nc(=O)c2c1CCC2 [Darapladib]	inactive: 0.632	inactive: 0.0168	inactive: -0.614
Cc1[nH]c(-c2ccccc2)c(N)c1C(=O)C(C)C [isoprazone]	inactive: -0.784	inactive: -0.898	inactive: 0.876
Cc1csc(S(=O)(=O)N(CC(C)C)c2cc3c(cc2OCc2ccc(C(=O)O)cc2)CCC3)n1	inactive: -0.123	inactive: 1.29	inactive: 0.0415
CCOC(=O)c1ccc(/C=C(\C)c2ccc3c(c2)C(C)(C)CCC3(C)C)cc1	inactive: 0.137	inactive: -0.912	inactive: 0.0987
Nc1ccn(C2OC(CO)C(O)C2O)c(=O)n1 (configuration not stated) [cytarabine, Access]	inactive: -1.95	inactive: -2.23	inactive: -0.767
O=C(O)CCCNC(=O)c1cccnc1 [Pikamilone]	inactive: -1.47	inactive: -0.0998	inactive: -1.98

SMILES	TEAD-luciferase reporter activity (compound concentration: 200 nM)	TEAD-luciferase reporter activity (compound concentration: 2 uM)	TEAD-luciferase reporter activity (compound concentration: 10 uM)
CCCCc1cc(CC(C)C)c(C=O)n1Cc1ccc(-c2ccccc2-c2nnn[nH]2)cc1	inactive: 0.907	active: 8.51	active: 9.34
O=C1CCCc2c1ccn2CCN1CCN(c2cccc(Cl)c2)CC1	inactive: -0.951	inactive: 1.13	inactive: -1.53
N#Cc1cnc(Nc2cc(NC[C@H]3CNCCO3)c(C(F)(F)F)cn2)cn1	inactive: -0.236	inactive: 0.541	inactive: -0.558
CC(=O)N1Cc2ccccc2CC2(CCCCN2Cc2ccccc2)C1 (configuration not stated)	inactive: -2.88	–	inactive: 0.388
C=C1C(=O)O[C@@H]2[C@H]3C(C)=CC[C@@]34O[C@@]4(C)CC[C@@H]12 [Arglabin]	inactive: -0.0753	inactive: -1.62	inactive: -2.04
CCO/N=C/c1ccc(OCCC2CCN(c3ccc(C)nn3)CC2)cc1	inactive: -2.28	inactive: -0.484	inactive: 0.226
CC(C)OC(=O)C1=CN(C(=O)c2ccc(F)c(F)c2)CC(C)(C)c2c1[nH]c1ccccc21 [Turofexorate isopropyl]	inactive: -1.64	inactive: -0.596	inactive: -2.21
CCCCOc1ccc(OCCCN2CCOCC2)cc1	inactive: -2.42	–	inactive: 1.51
CCCCOc1ccc(OCCCN2CCOCC2)cc1 [Pramoxine hydrochloride]	–	inactive: -1.37	–
O=S(Cc1cc(OCC(F)(F)C(F)(F)C(F)(F)F)ccn1)c1nc2cscc2[nH]1 (configuration not stated)	inactive: 0.902	inactive: -1.06	inactive: -0.186
C[C@H]1[C@H](C)CC[C@]2(C(=O)O)CC[C@]3(C)C(=CC[C@@H]4[C@@]5(C)C[C@@H](O)[C@H](O)C(C)(C)[C@@H]5CC[C@]43C)[C@H]12 [Corosolic acid]	inactive: -0.132	inactive: -0.518	inactive: -1.6
O=S(=O)(NCl)c1ccccc1	inactive: -0.555	inactive: -0.216	inactive: -0.853
CCC/C=C1\OC(=O)C2=C1CCC=C2 [Ligustilide]	active: 5.32	inactive: -0.481	inactive: 1.95
CNc1ncnc2c1ncn2Cc1ccccc1F	inactive: -0.541	inactive: -1.36	inactive: 0.773
CC(=O)Nc1ccc(C=NNC(N)=S)cc1	inactive: 0.0124	inactive: -0.45	inactive: -1.11
O=C(c1ccc(O[C@H]2C[C@H](N3CCCCC3)C2)cc1)N1CCOCC1 [analog of UCB-2892]	inactive: 4.81	inactive: 0.921	inactive: -0.0101
CN(C)CCOC(C)(c1ccccc1)c1ccccc1	inactive: -0.23	inactive: 1.53	inactive: 0.999
CC(=O)O[C@@H]1[C@H]2OC(C)(C)O[C@H]2O[C@@H]1[C@H]1COC(C)(C)O1	inactive: -0.112	inactive: 0.244	inactive: 0.393
NC(=O)[C@@H]1CN(CCCCC(c2ccc(F)cc2)c2ccc(F)cc2)CCN1CC(=O)Nc1c(Cl)cc(N)cc1Cl	inactive: -2.12	inactive: -1.12	inactive: 1.48

In another format: entries from further up.
SMILES,TEAD-luciferase reporter activity (compound concentration: 200 nM),TEAD-luciferase reporter activity (compound concentration: 2 uM),TEAD-luciferase reporter activity (compound concentration: 10 uM)
Cc1cccc(OCCNCc2cc(F)cc(C#N)c2)c1,inactive: -0.9,inactive: -0.602,inactive: 0.15
Cc1ccc(C(=O)N2CCC(=CC(=O)N[C@@H]3CCN(Cc4ccc5cc(F)ccc5c4)C3)CC2)nn1,inactive: -0.338,inactive: -1.94,inactive: -0.431
CCC(CC)(CC(=O)Nc1cccc(OCc2ccc3ccc(F)cc3n2)c1)C(=O)O,inactive: 0.196,inactive: -0.000773,inactive: 0.411
Cc1cc(C(=O)NC[C@@H]2CC[C@H]3C[C@@H]2C3(C)C)ccc1Cl,inactive: -0.627,–,inactive: 2.23
COCCNC(=O)c1ccnc(C(=O)NCCOC)c1 [Lufironil],inactive: 2.07,inactive: -0.0229,inactive: 2
COCC(=O)N1CCCC1C(=O)N1CCC(c2ccccc2)CC1 (configuration not stated),active: 13,–,inactive: -0.744
CN(C)CC#CCCC(=O)C(O)(c1ccccc1)C1CCC1 (configuration not stated),inactive: -0.381,inactive: -0.91,inactive: 0.589
CC(C)CCNc1ncccc1C(=O)N1CCN(Cc2ccccc2)CC1,inactive: -0.41,inactive: -1.6,inactive: 0.125
CCCOC(=O)N[C@@H](C(=O)N1CCC[C@H]1C(=O)NC[C@H]1CC[C@H](N)CC1)C(C)(C)SC(C)C,inactive: -0.401,inactive: -0.551,inactive: 1.25
CCN(CC)CCN(Cc1ccc(-c2ccc(C(F)(F)F)cc2)cc1)C(=O)Cn1c(SCc2ccc(F)cc2)nc(=O)c2c1CCC2 [Darapladib],inactive: 0.632,inactive: 0.0168,inactive: -0.614
Cc1[nH]c(-c2ccccc2)c(N)c1C(=O)C(C)C [isoprazone],inactive: -0.784,inactive: -0.898,inactive: 0.876
Cc1csc(S(=O)(=O)N(CC(C)C)c2cc3c(cc2OCc2ccc(C(=O)O)cc2)CCC3)n1,inactive: -0.123,inactive: 1.29,inactive: 0.0415
CCOC(=O)c1ccc(/C=C(\C)c2ccc3c(c2)C(C)(C)CCC3(C)C)cc1,inactive: 0.137,inactive: -0.912,inactive: 0.0987
"Nc1ccn(C2OC(CO)C(O)C2O)c(=O)n1 (configuration not stated) [cytarabine, Access]",inactive: -1.95,inactive: -2.23,inactive: -0.767
O=C(O)CCCNC(=O)c1cccnc1 [Pikamilone],inactive: -1.47,inactive: -0.0998,inactive: -1.98
CCCCc1cc(CC(C)C)c(C=O)n1Cc1ccc(-c2ccccc2-c2nnn[nH]2)cc1,inactive: 0.907,active: 8.51,active: 9.34

Later entries.

SMILES	TEAD-luciferase reporter activity (compound concentration: 200 nM)	TEAD-luciferase reporter activity (compound concentration: 2 uM)	TEAD-luciferase reporter activity (compound concentration: 10 uM)
CC(OCCN1CCCCCC1)(c1ccccc1)c1ccc(Cl)cc1 (configuration not stated) [setastine]	inactive: -0.77	inactive: -1.8	inactive: -1.17
O=c1nc[nH]c2c([C@@H]3N[C@H](CO)[C@@H](O)[C@H]3O)c[nH]c12 [forodesine hydrochloride]	inactive: 0.796	inactive: -0.653	inactive: 0.454
CCOC(=O)N[C@@H]1CC[C@@H]2[C@@H](C1)C[C@H]1C(=O)O[C@H](C)[C@H]1[C@H]2/C=C/c1ccc(-c2cccc(F)c2)cn1 [Vorapaxar]	inactive: 0.581	inactive: -3.28	inactive: 0.125
CCC1Nc2cc(Cl)c(S(N)(=O)=O)cc2S(=O)(=O)N1 (configuration not stated)	inactive: 0.934	inactive: -0.926	inactive: 0.112
C[C@@H]1C[C@H]2[C@@H]3CCC4=CC(=O)C=C[C@]4(C)[C@@]3(F)[C@@H](O)C[C@]2(C)[C@H]1C(=O)CO [desoximetasone]	–	inactive: -0.0423	–
C[C@@H]1C[C@H]2[C@@H]3CCC4=CC(=O)C=C[C@]4(C)[C@@]3(F)[C@@H](O)C[C@]2(C)[C@H]1C(=O)CO	inactive: -0.645	–	inactive: 1.22
CC1(C)[C@H]2C[C@H](C/C=C\CCCC(=O)O)[C@@H](NC(=O)c3csc4ccc(O)cc34)[C@@H]1C2	inactive: -1.41	inactive: 2.05	inactive: 1.37
CSc1ccc(-c2ccc(S(=O)(=O)N[C@@H](C(=O)O)C(C)C)cc2)cc1	inactive: -0.639	inactive: -1	inactive: 0.564
CN1CCCC1CCNC(=O)c1cn2c3c(c(N4CCC(c5cnccn5)C4)c(F)cc3c1=O)Oc1cc3ccccc3cc1-2 (configuration not stated)	inactive: -1.08	inactive: 0.177	inactive: -1.27
COc1cccc(-c2ccc(C(=O)N3CCC(NC(=O)c4ccc(F)cc4)CC3)cc2)c1	inactive: 2.1	–	inactive: 1.59
Nc1sc2c(c1C(=O)c1ccc(Cl)cc1)CCCC2	inactive: -1.24	inactive: -1.66	inactive: 0.255
O=C(C(Cl)Cl)N(CCO)Cc1ccc(Oc2ccc([N+](=O)[O-])cc2)cc1	active: 7.44	inactive: -1.19	inactive: 0.115
CC(C)(CNC(N)=O)NCC(O)COC(=O)c1ccccc1F (configuration not stated)	inactive: 1.19	inactive: -0.0231	inactive: -0.0537
Cc1ccc2[nH]cc(CC(C)(C)NCC(O)COc3cccc4[nH]c(C)cc34)c2c1 (configuration not stated)	inactive: -2.41	inactive: -0.569	inactive: 3.79
CCCCCCN(CCc1ccccc1)C(=O)COc1ccc(CC(OCC)C(=O)O)cc1 (configuration not stated)	inactive: -1.22	inactive: -0.304	inactive: 1.28
COc1ccc(NS(=O)(=O)c2c(F)cccc2F)cc1	inactive: -0.884	inactive: -2.38	inactive: -1.03
CCCCC(CC)C1NC(=O)N(SC(Cl)(Cl)Cl)C1=O (configuration not stated)	inactive: -0.291	inactive: 4.39	inactive: 2.93
Cc1c2cc[n+]([C@@H]3OC[C@H](O)[C@H](O)[C@H]3O)cc2c(C)c2c1[nH]c1ccc(O)cc12 [Ellipravin]	inactive: -0.751	inactive: -0.965	inactive: 1.69

Source: the supplement of paper PMC10735217
